PubChem BioAssay AID686943, Drosophila RNAi Screening Center – 2013

- Test: 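Search across the genome for regulators of signalling from receptor tyrosine kinase to ERK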 (primary screen)
- Cell system: Drosophila S2R+ haemocyte-like cells expressing YFP-tagged ERK (Rolled)
- Knock-down reagent: long dsRNA against Drosophila genes
- Treatment: insulin stimulation versus unstimulated cells; dose and duration not given
- Measurement: 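Per-plate z-scores of phospho-ERK immunostaining normalised to YFP-tagged ERK, measured with and without insulin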
- Reading the numbers: replicate 1, z-score of dpERK with insulin: higher = more active ERK per ERK-YFP after insulin
In all, the deposit lists about 23,000 reagents; below is an unselected part of those that have a named target and a result. 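Extra replicates exist only for a retested subset of genes; insulin dose and duration not given; both raised and lowered dpERK matter.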 Reagents against one gene are numbered here. Further read-outs or replicates are left out here. No sequences are given here. The record does not give: the amount of reagent, the time to read-out.

For CG7328, how do the results read?
replicate 1, z-score of dpERK with insulin: 0.12

With exp (expansion), what was measured?
replicate 1, z-score of dpERK with insulin: -2.94

With CG6356, how do the results read?
replicate 1, z-score of dpERK with insulin: 0.76

With Bulli, what was measured?
replicate 1, z-score of dpERK with insulin: 0

Which result is listed for CG18273 #1?
replicate 1, z-score of dpERK with insulin: 0.59

How did the screen score CG18273 #2?
replicate 1, z-score of dpERK with insulin: 0.31

How did the screen score Cont (Contactin)?
replicate 1, z-score of dpERK with insulin: 0.03

With pns (pinstripe), what was measured?
replicate 1, z-score of dpERK with insulin: -0.68

How did the screen score fbl (fumble)?
replicate 1, z-score of dpERK with insulin: -0.39

How did the screen score Gr32a (Gustatory receptor 32a)?
replicate 1, z-score of dpERK with insulin: 0.78

With Dip-C (Dipeptidase C), what does the deposit list?
replicate 1, z-score of dpERK with insulin: 0.18

Which result is listed for hay (haywire)?
replicate 1, z-score of dpERK with insulin: 1.1

For l(2)k01209 (lethal (2) k01209), what was measured?
replicate 1, z-score of dpERK with insulin: -0.21

With rn (rotund) #1, what does the deposit list?
replicate 1, z-score of dpERK with insulin: -3.13

How did the screen score rn (rotund) #2?
replicate 1, z-score of dpERK with insulin: 0.76

Which result is listed for rn (rotund) #3?
replicate 1, z-score of dpERK with insulin: -1.03

With rn (rotund) #4, how do the results read?
replicate 1, z-score of dpERK with insulin: 0.05

Which result is listed for rn (rotund) #5?
replicate 1, z-score of dpERK with insulin: -0.84

For CG8248, what was measured?
replicate 1, z-score of dpERK with insulin: 0.19

With twf (twinfilin), what does the deposit list?
replicate 1, z-score of dpERK with insulin: 0.67

With CG4598, what does the deposit list?
replicate 1, z-score of dpERK with insulin: -0.66

How did the screen score CG6683?
replicate 1, z-score of dpERK with insulin: 0.84

For krz (kurtz), what was measured?
replicate 1, z-score of dpERK with insulin: -0.05

What is on record for CG43278 (retired record)?
replicate 1, z-score of dpERK with insulin: 0.03

What did the screen give for CG14143?
replicate 1, z-score of dpERK with insulin: 0.35

For Grp170 (Grp170 co-chaperone), how do the results read?
replicate 1, z-score of dpERK with insulin: 1.04

With CG7054, what does the deposit list?
replicate 1, z-score of dpERK with insulin: -0.15

What did the screen give for Mekk1 #1?
replicate 1, z-score of dpERK with insulin: -1.29

With Mekk1 #2, how do the results read?
replicate 1, z-score of dpERK with insulin: -0.13

How did the screen score SC35 (SR family splicing factor SC35) #1?
replicate 1, z-score of dpERK with insulin: -1.94

For SC35 (SR family splicing factor SC35) #2, how do the results read?
replicate 1, z-score of dpERK with insulin: 0.17
